Structures can show the parent of a compound that is named as a salt. Where two headings read alike, the source gives them in different places. About 95 (3%) of roughly 3,300 compounds showed an effect of 50% or more. This is one part of the list. Peptide text beside a SMILES is read from it.
System: HCoV-229E
Set-up: species or system Huh-7; HTS, protection from HCoV-229E induced cell death, luminescent cell viability (CellCounting-Lite 2.0), inhibition rate
Conditions: 24 h post infection, 1 h compound pre-incubation, 10 µM, inhibitor

Structure (SMILES): O=C1c2cc(CO)cc(O)c2C(=O)c2c(O[C@@H]3O[C@H](CO)[C@@H](O)[C@H](O)[C@H]3O)cccc21 [Aloe-emodin-8-O-β-D-glucopyranoside]
- 229E Inhibition rate: 29.4%

Structure (SMILES): C[C@H](CC[C@@]1(O)O[C@H]2C[C@H]3[C@@H]4CC=C5C[C@@H](O[C@@H]6O[C@H](CO)[C@@H](O)[C@H](O[C@@H]7O[C@H](CO)[C@@H](O)[C@H](O)[C@H]7O)[C@H]6O[C@@H]6O[C@@H](C)[C@H](O)[C@@H](O)[C@H]6O)CC[C@]5(C)[C@H]4CC[C@]3(C)[C@H]2[C@@H]1C)CO[C@@H]1O[C@H](CO)[C@@H](O)[C@H](O)[C@H]1O [Protogracillin]
- 229E Inhibition rate: 3.2%

Structure (SMILES): C[C@@H]1C[C@H]2O[C@@]3(O[C@@H]2C(C)(C)O)[C@H](O)[C@@]2(C)[C@@H]4CC[C@H]5C(C)(C)[C@@H](O)CC[C@@]56C[C@@]46CC[C@]2(C)[C@@H]13 [Cimigenol]
- 229E Inhibition rate: 36.6%

Structure (SMILES): COc1cc2oc(-c3ccccc3)cc(=O)c2c(OC)c1OC [5,6,7-Trimethoxyflavone]
- 229E Inhibition rate: 28.5%

Structure (SMILES): COc1c(O[C@@H]2O[C@H](C(=O)O)[C@@H](O)[C@H](O)[C@H]2O)cc(O)c2c(=O)cc(-c3ccccc3)oc12 [Wogonoside]
- 229E Inhibition rate: 11.8%

Structure (SMILES): CC(C)(N)C(=O)O [NSC 16590]
- 229E Inhibition rate: 10.2%

Structure (SMILES): CCCCCC/C=C\CCCCCCCC(=O)OC [Methyl palmitoleate]
- 229E Inhibition rate: 6.5%

Structure (SMILES): Cc1ncc(COP(=O)(O)O)c(C=O)c1O [Pyridoxal phosphate]
- 229E Inhibition rate (229E Inhibition rate, 24 h): 10%

Structure (SMILES): NC(=O)c1ccc[n+]([C@@H]2O[C@H](COP(=O)([O-])O)[C@@H](O)[C@H]2O)c1 [β-Nicotinamide mononucleotide]
- 229E Inhibition rate: 11.5%

Structure (SMILES): O=C(O)c1cc(O)c2c(c1)[C@H]([C@H]1c3cc(C(=O)O)cc(O)c3C(=O)c3c(O[C@@H]4O[C@H](CO)[C@@H](O)[C@H](O)[C@H]4O)cccc31)c1cccc(O[C@@H]3O[C@H](CO)[C@@H](O)[C@H](O)[C@H]3O)c1C2=O [Sennoside A]
- 229E Inhibition rate: 31.3%

Structure (SMILES): CNCC(O)c1ccc(O)cc1 (stereo not drawn) [p-Synephrine]
- 229E Inhibition rate (229E Inhibition rate, 24 h): 16.1%

Structure (SMILES): Nc1nc2ncc([C@H](O)[C@H](O)CO)nc2c(=O)[nH]1 [Neopterin]
- 229E Inhibition rate: 8.8%

Structure (SMILES): CCCCCC1=C(C)CCC1=O [Dihydrojasmone]
- 229E Inhibition rate: 40.7%

Structure (SMILES): CC1(C)CC[C@]2(C)CC[C@]3(C)C(=CC[C@@H]4[C@@]5(C)CC[C@@H](O)[C@](C)(C(=O)O)[C@@H]5CC[C@]43C)[C@@H]2C1 [alpha-Boswellic acid]
- 229E Inhibition rate: 14%

Structure (SMILES): C[C@@H]1C(=O)O[C@H]2C[C@@]34[C@H]5C[C@@H](C(C)(C)C)[C@]36[C@@H](OC(=O)[C@@H]6O)O[C@@]4(C(=O)O5)[C@]21O [Ginkgolide A]
- 229E Inhibition rate: 11.6%

Structure (SMILES): CC[C@H](C)[C@H](N)C(=O)N[C@@H](C)C(=O)N[C@@H](CCCN=C(N)N)C(=O)N[C@@H](CCCN=C(N)N)C(=O)N[C@@H](Cc1cnc[nH]1)C(=O)N1CCC[C@H]1C(=O)N[C@@H](Cc1ccc(O)cc1)C(=O)N[C@@H](Cc1ccccc1)C(=O)N[C@@H](CC(C)C)C(=O)O [Kinetensin] (H-IARRHPYFL-OH)
- 229E Inhibition rate: 56.1%

Structure (SMILES): CC1(C)CC[C@]2(C(=O)O)CC[C@]3(C)C(=CC[C@@H]4[C@@]5(C)CC[C@H](O[C@@H]6O[C@H](C(=O)O)[C@@H](O[C@@H]7O[C@@H](CO)[C@H](O)[C@H]7O)[C@H](O)[C@H]6O)C(C)(C)[C@@H]5CC[C@]43C)[C@@H]2C1 [Tarasaponin VI]
- 229E Inhibition rate: 4.4%

Structure (SMILES): NC(=O)c1ncn([C@@H]2O[C@H](CO)[C@@H](O)[C@H]2O)c1N [AICAR (phosphate)]
- 229E Inhibition rate: 10.5%

Structure (SMILES): CC1(C)[C@@H](O[C@@H]2OC[C@H](O[C@@H]3O[C@H](CO)[C@@H](O)[C@H](O)[C@H]3O[C@@H]3OC[C@@H](O)[C@H](O)[C@H]3O)[C@H](O)[C@H]2O[C@@H]2O[C@H](CO)[C@@H](O)[C@H](O)[C@H]2O)CC[C@]2(C)[C@H]3CC[C@]45OC[C@@]6(CC[C@](C)(C=O)C[C@H]64)[C@H](O)C[C@@]5(C)[C@]3(C)CC[C@@H]12 [Ardisiacrispin A]
- 229E Inhibition rate: 0.2%

Structure (SMILES): COc1cc(CCO)ccc1O [Homovanillyl alcohol]
- 229E Inhibition rate: 6.3%

Structure (SMILES): O=C(O)c1ccc[nH]1 [Pyrrole-2-carboxylic acid]
- 229E Inhibition rate: 6.8%

Structure (SMILES): O=c1c(O)c(-c2ccc(O)c(O)c2)oc2cc(O)cc(O)c12 [Quercetin]
- 229E Inhibition rate (229E Inhibition rate, 24 h): 23.2%

Structure (SMILES): CCCC(=O)C(=O)O [2-Oxovaleric acid]
- 229E Inhibition rate: 0%

Structure (SMILES): C[Se]CC[C@H](N)C(=O)O [L-SelenoMethionine]
- 229E Inhibition rate (229E Inhibition rate, 24 h): 10%

Structure (SMILES): CC[C@]12CCCN3CCc4c(n(c5ccccc45)C(=O)C1)[C@@H]32 [Vinburnine]
- 229E Inhibition rate: 22.5%

Structure (SMILES): NC(=O)c1[nH]cnc1N [5-Amino-3H-imidazole-4-Carboxamide]
- 229E Inhibition rate: 6.7%

Structure (SMILES): COc1cc2c(cc1O)[C@@H](Cc1ccc(O)c(Oc3ccc(C[C@@H]4c5cc(OC)c(OC)cc5CCN4C)cc3)c1)N(C)CC2 [Daurisoline]
- 229E Inhibition rate: 24.5%

Structure (SMILES): CC(=O)NCCCCN [N-Acetylputrescine hydrochloride]
- 229E Inhibition rate: 17.4%

Structure (SMILES): CC(=O)O[C@H]1[C@H](O[C@H]2CC[C@]34C[C@]35CC[C@]3(C)[C@@H]([C@@]6(C)CC[C@@H](C(C)(C)O)O6)[C@@H](O)C[C@@]3(C)[C@@H]5C[C@H](O[C@@H]3O[C@H](CO)[C@@H](O)[C@H](O)[C@H]3O)[C@H]4C2(C)C)OC[C@@H](O)[C@@H]1O [Astragaloside II]
- 229E Inhibition rate: 11.5%

Structure (SMILES): C[C@@H]1O[C@@H]1P(=O)(O)O [Fosfomycin (sodium)]
- 229E Inhibition rate: 11.3%

Structure (SMILES): COc1c(C(C)C)cc2c(c1O)[C@@]1(C(=O)O)CCCC(C)(C)[C@@H]1CC2 [12-O-Methylcarnosic acid]
- 229E Inhibition rate: 16.8%

Structure (SMILES): COC1[C@H](O)[C@@H](O)C(O)[C@H](O)[C@H]1O (stereo partly drawn) [L-Quebrachitol]
- 229E Inhibition rate: 10.1%

Structure (SMILES): C[C@@H]1CCC=C2C(=O)C[C@H]3OOC(C)(C)[C@H]3[C@]21C [Nardosinone]
- 229E Inhibition rate: 6.2%

Structure (SMILES): COC(=O)C1=CO[C@@H](C)[C@@H]2CN3CC[C@@]4(C(=O)Nc5ccccc54)[C@@H]3C[C@H]12 [Isopteropodine]
- 229E Inhibition rate: 13.3%

Structure (SMILES): CCOC(=O)CCC(=O)O[C@H]1[C@H](O[C@@H]2[C@@H](C)[C@H](O[C@H]3C[C@@](C)(OC)[C@@H](O)[C@H](C)O3)[C@@H](C)C(=O)O[C@H](CC)[C@@](C)(O)[C@H](O)[C@@H](C)C(=O)[C@H](C)C[C@@]2(C)O)O[C@H](C)C[C@@H]1N(C)C [Erythromycin Ethylsuccinate]
- 229E Inhibition rate: 7.6%

Structure (SMILES): COc1ccc(C(=O)O)cc1 [p-Anisic acid]
- 229E Inhibition rate: 5.8%

Structure (SMILES): C/C=C(/C)C(=O)OC(C)(C)[C@@H]1Cc2c(ccc3ccc(=O)oc23)O1 [Columbianadin, columbianadin]
- 229E Inhibition rate: 29.6%

Structure (SMILES): C[C@H](N)C(=O)O [L-Alanine]
- 229E Inhibition rate: 13.4%

Structure (SMILES): CCC1=C[C@@H]2CN(C1)Cc1c([nH]c3ccccc13)[C@@](C(=O)OC)(c1cc3c(cc1OC)N(C)[C@H]1[C@@](O)(C(=O)OC)[C@H](OC(C)=O)[C@]4(CC)C=CCN5CC[C@]31[C@@H]54)C2 [Vinorelbine (ditartrate)]
- 229E Inhibition rate: 14.8%

Structure (SMILES): O=c1c(O)c(-c2ccc(O)cc2)oc2c(O)c(O)cc(O)c12 [Herbacetin]
- 229E Inhibition rate: 0%

Structure (SMILES): CC(C)=CCC[C@](C)(O[C@@H]1O[C@H](CO)[C@@H](O)[C@H](O)[C@H]1O)[C@H]1CC[C@]2(C)[C@@H]1[C@H](O)C[C@@H]1[C@@]3(C)CC[C@H](O)C(C)(C)[C@@H]3[C@@H](O[C@@H]3O[C@H](CO)[C@@H](O)[C@H](O)[C@H]3O[C@@H]3OC[C@@H](O)[C@H](O)[C@H]3O)C[C@]12C [Notoginsenoside R1]
- 229E Inhibition rate: 9.8%

Structure (SMILES): OCc1ccccc1 [Benzyl alcohol]
- 229E Inhibition rate: 36.4%

Structure (SMILES): C[C@H](CC[C@@]1(O)O[C@H]2C[C@H]3[C@@H]4CC[C@@H]5C[C@@H](O[C@@H]6O[C@H](CO)[C@@H](O)[C@H](O)[C@H]6O[C@@H]6O[C@H](CO)[C@@H](O)[C@H](O)[C@H]6O)CC[C@]5(C)[C@H]4CC[C@]3(C)[C@H]2[C@@H]1C)CO[C@@H]1O[C@H](CO)[C@@H](O)[C@H](O)[C@H]1O [Officinalisinin I]
- 229E Inhibition rate: 10.9%

Structure (SMILES): CNCCC=C1c2ccccc2CCc2ccccc21 [Nortriptyline]
- 229E Inhibition rate: 0%

Structure (SMILES): C[C@]12CC[C@@H](O)C[C@H]1CC[C@@H]1[C@@H]2C(=O)C[C@@]2(C)[C@H]1CC[C@]2(O)C(=O)CO [Tetrahydrocortisone]
- 229E Inhibition rate: 9.2%

Structure (SMILES): C=C(C(=O)O)[C@@H]1CC[C@@H](C)[C@@H]2CCC(C)=C[C@@H]21 [Artemisic acid]
- 229E Inhibition rate: 7.1%

Structure (SMILES): OC[C@H]1O[C@@H](OCCc2ccc(O)cc2)[C@H](O)[C@@H](O)[C@@H]1O [Salidroside]
- 229E Inhibition rate: 10%

Structure (SMILES): C[C@H](O)[C@H]1CC[C@H]2[C@@H]3CC[C@@H]4C[C@H](O)CC[C@]4(C)[C@H]3CC[C@]12C [Pregnanediol]
- 229E Inhibition rate: 19.1%

Structure (SMILES): CC(C)=CC(=O)C[C@H](C)c1ccc(C)cc1 [ar-Turmerone]
- 229E Inhibition rate: 53%

Structure (SMILES): CCc1c2c(nc3ccc(OC(=O)N4CCC(N5CCCCC5)CC4)cc13)-c1cc3c(c(=O)n1C2)COC(=O)[C@]3(O)CC [Irinotecan (hydrochloride)]
- 229E Inhibition rate: 20.2%

Structure (SMILES): CSCC[C@H](N)C(=O)O [L-Methionine]
- 229E Inhibition rate: 38.9%

— article PMC12431657, “Discovery and mechanistic insights of dibenzoylmethane as a broad spectrum inhibitor of coronavirus” (PLOS Pathogens, 2025)
